# In PubChem BioAssay AID504834 (National Center for Advancing Translational Sciences (NCATS), 2011):
# Among all 320,000 compounds or so, about 22,000 (6.9%) were called active. Inconclusive means that the source gave no clear call. Such entries were picked first, then a sample of the others. Calls come from the whole dose curve; as a rule, active = well fitted inhibition curve with a large enough effect; inconclusive = small, poorly fitted or top-dose-only effect, or another doubt; inactive = no such curve, though single readings can be large or run the other way. A potency beside an inconclusive call is a rough fit, not a confirmed value.
# Experiment: Primary qHTS for delayed death inhibitors of the malarial parasite plastid, 96 hour incubation
# Settings: P. falciparum luciferase reporter growth; series mostly up to 28.7 µM; activity change, negative = inhibition: at the top concentration
# Method in brief: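 Two-generation exposure (96 h) targets delayed-death phenotype. Reporter parasites carrying integrated firefly luciferase, in red cells at 2% hematocrit and 0.05% parasitemia final, kept at 37 C, 5% CO2; luminescence loss indicates inhibition.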
# % is set by controls: 0 for no effect and ±100 for the full control effect; potency is the fitted concentration of half-maximal effect.
SMILES,Potency,"activity change, negative = inhibition"
CCC(Sc1nc(N)cc(N)n1)C(=O)O (configuration not stated),active: 3.29 µM,
O=C(Nc1nc2ccccc2s1)c1c(F)cccc1Cl,,inactive: -21.8%
Cc1cccc(-n2cnc3sc(C)c(C)c3c2=O)c1,,inactive: -6.78%
COc1cccc(C(=O)N(c2ccc(C)cc2)C2C=CS(=O)(=O)C2)c1 (configuration not stated),"inconclusive: 13.1 µM [inhibitor, single point]",
COc1cccc(OCC(=O)Nc2c3c(nn2-c2ccc(F)cc2)CS(=O)(=O)C3)c1,,inactive: 2.04%
O=C(O)CN1C(=O)CSc2ccccc21,"inconclusive: 18.5 µM [inhibitor, single point]",
CC1=Nc2cc(C(=O)NCC3CCCO3)ccc2Sc2ccc(C)cc21 (configuration not stated),,inactive: -5.03%
O=C(NC(NC1CCS(=O)(=O)C1)C(Cl)(Cl)Cl)c1cccc(Cl)c1 (configuration not stated),"inconclusive: 1.17 µM [inhibitor, partial curve, poor fit]",
COC(=O)c1cc(NC(=O)CC2CCCC2)cc(C(=O)OC)c1,"inconclusive: 9.28 µM [inhibitor, single point]",
Cc1ccc(-n2c(O)c(C=Nc3ccc(S(=O)(=O)Nc4ncccn4)cc3)c3ccccc3c2=O)cc1C,,inactive: 38.1%
CS(=O)(=O)Nc1ccc(-c2cc(/C=C3\SC(N)=NC3=O)c[nH]c2=O)cc1,"inconclusive: 7.38 µM [inhibitor, partial curve]",
COc1cc(C2=NC(CO)(CO)CO2)cc(OC)c1OC,,inactive: 3.24%
CC(=O)C1C(c2ccc(F)cc2)NC(=O)NC1(O)C(F)(F)F (configuration not stated),"inconclusive: 13.1 µM [inhibitor, single point]",
COC(=O)c1c(C)cc(C)c2c1CC(C)(C)C2=O,"inconclusive: 0.0023 µM [inhibitor, full curve, poor fit]",
COc1ccc([N+](=O)[O-])cc1NC(=O)CC1SC(=Nc2cccc(C)c2C)N(/N=C(\C)c2ccc(C)cc2)C1=O (configuration not stated),"inconclusive: 3.29 µM [inhibitor, full curve, poor fit]",
O=C(NCCC1CCCC1)c1cccs1,,inactive: -24.3%
COc1ccccc1N1CCN(C2CCCN(Cc3ccc(Cl)cc3)C2)CC1 (configuration not stated),active: 13.1 µM,
CCOC(=O)C1=C(C)NC(C)=C(C(=O)OCC)C1C(=O)OCC(=O)N(CC)C1CCS(=O)(=O)C1 (configuration not stated),,inactive: 3.58%
O=C(Nc1ccc(Cc2ccncc2)cc1)c1ccco1,"inconclusive: 10.4 µM [inhibitor, single point]",
COc1ccccc1-c1nnc(SCC(=O)NCc2cccs2)n1N,,inactive: -5.83%
Cc1nn(-c2ccc(C(=O)OC(C)C)cc2)c(C)c1[N+](=O)[O-],,inactive: 12.2%
Cc1cc(C(=O)N/N=C/c2ccc(-c3ccccc3Cl)o2)n[nH]1,"inconclusive: 14.7 µM [inhibitor, single point]",

# Look-ups from the list.
# In activity change, negative = inhibition, Cc1nn(-c2ccc(C(=O)OC(C)C)cc2)c(C)c1[N+](=O)[O-] reads inactive: 12.2%
# In Potency, COc1cccc(C(=O)N(c2ccc(C)cc2)C2C=CS(=O)(=O)C2)c1 (configuration not stated) reads inconclusive: 13.1 µM [inhibitor, single point]
